This passage reports survivor count and T/C results from PubChem BioAssay AID248 (DTP/NCI, 2004).

Structures are written as SMILES. The list does not hold the whole screen: it gathers tests that were run many times, whatever their T/C, doses with no T/C, and many T/C values between a quarter and a half above the control. Further doses and runs are listed elsewhere. T/C is the treated group as % of the vehicle group. Some entries give survivors of the animals treated and no T/C: the source holds a T/C of zero for them, seemingly a mark for toxic or unscored doses. Some doses without a T/C left all or most animals alive at the check, yet need not have been tolerated: the source hardly ever lists a survival T/C far under the control, and the zero likely stands for such cases as well. Survivors were counted at the toxicity check, usually on the fifth day, unless a day is given; later deaths do not show. Schedule codes are those of the source, read here as Q, the interval in days (D) or hours (H), X, the number of doses. Some doses were run more than once; the values are given in rising order. Where survival is the endpoint, this PubChem deposit counts one and a half times the control or more as active, and values a quarter to a half above the control carry no call in these data; other NCI protocols may use other cut-offs. Some T/C values are followed by the survivors on the day toxicity was checked, most often the fifth; where none is given, no animal had died by that day.

The assay has as its system L1210 leukemia ip in BDF1 mice, survival T/C. Nature of the assay: NCI In Vivo Anticancer Drug Screen. Data for tumor model L1210 Leukemia (intraperitoneal) in B6D2F1 (BDF1) mice. The settings on record: T/C endpoint: mean survival time, higher T/C = longer survival.
Where [1] appears, read: dose: 100.0 mg/kg/injection, schedule: Q01DX001 (ip), vehicle: saline with Tween-80.
Setting [2] is: dose: 200.0 mg/kg/injection, schedule: Q01DX001 (ip), vehicle: saline with Tween-80.
[3] abbreviates: dose: 400.0 mg/kg/injection, schedule: Q01DX001 (ip), vehicle: saline with Tween-80.
Setting [4] is: dose: 100.0 mg/kg/injection, schedule: Q01DX009 (ip), vehicle: saline with Tween-80.
Setting [5] is: dose: 100.0 mg/kg/injection, schedule: Q04DX003 (ip), vehicle: Klucel (hydroxypropylcellulose) (HPC).
The mark [6] stands for this setting: dose: 200.0 mg/kg/injection, schedule: Q01DX009 (ip), vehicle: saline with Tween-80.
[7] abbreviates: dose: 200.0 mg/kg/injection, schedule: Q04DX003 (ip), vehicle: Klucel (hydroxypropylcellulose) (HPC).
The mark [8] stands for this setting: dose: 400.0 mg/kg/injection, schedule: Q04DX003 (ip), vehicle: Klucel (hydroxypropylcellulose) (HPC).
Where [9] appears, read: dose: 200.0 mg/kg/injection, schedule: Q01DX001 (ip), vehicle: saline.
Setting [10] is: dose: 400.0 mg/kg/injection, schedule: Q01DX001 (ip), vehicle: saline.
[11] abbreviates: dose: 400.0 mg/kg/injection, schedule: Q01DX001 (ip), vehicle: carboxymethylcellulose (CMC).
[12] abbreviates: dose: 100.0 mg/kg/injection, schedule: Q04DX003 (ip), vehicle: saline.
[13] abbreviates: dose: 200.0 mg/kg/injection, schedule: Q04DX003 (ip), vehicle: saline.
Setting [14] is: dose: 400.0 mg/kg/injection, schedule: Q04DX003 (ip), vehicle: saline.
Setting [15] is: dose: 100.0 mg/kg/injection, schedule: Q04DX003 (ip), vehicle: saline with Tween-80.
Where [16] appears, read: dose: 200.0 mg/kg/injection, schedule: Q04DX003 (ip), vehicle: saline with Tween-80.
Where [17] appears, read: dose: 400.0 mg/kg/injection, schedule: Q04DX003 (ip), vehicle: saline with Tween-80.
The mark [18] stands for this setting: dose: 200.0 mg/kg/injection, schedule: Q01DX001 (ip), vehicle: Klucel (hydroxypropylcellulose) (HPC).
[19] abbreviates: dose: 400.0 mg/kg/injection, schedule: Q01DX001 (ip), vehicle: Klucel (hydroxypropylcellulose) (HPC).

As for `CCCCCCC[CH2][Sn]([CH2]C)([CH2]C)[O]C(C)=O`, the survivor count is, setting by setting: under setting [1], 0 of 6; under setting [2], 0 of 6; under setting [3], 0 of 6.

On to `CCOC(=O)NNC(=O)OCC`, for which the survivor count is 3 of 3 (dose: 50.0 mg/kg/injection, schedule: Q01DX009 (ip), vehicle: saline with Tween-80); 1 of 3 under setting [4]; 3 of 6 under setting [5]; 0 of 3 and 0 of 6 under setting [6]; 0 of 6 under setting [7]; 2 of 6 (dose: 300.0 mg/kg/injection, schedule: Q01DX001 (ip), vehicle: acetone). Besides, under setting [8], the survivor count is 0 of 6.

`O=C(Nc1ccccc1F)c1ccco1`: where the note is “dose: 400.0 mg/kg/injection, schedule: Q01DX009 (ip), vehicle: Klucel (hydroxypropylcellulose) (HPC)”, the survivor count is given as 3 of 6.

Turning to `CSC(N(C)c1ccccc1)=[N+](C)c1ccccc1`, the survivor count by setting is: under setting [9], 3 of 6; under setting [10], 0 of 6.

`COc1ccc(O)c(C=O)c1`: under setting [6], the T/C is 125 % of control [4 of 6 alive]. In addition, the survivor count (dose: 400.0 mg/kg/injection, schedule: Q01DX009 (ip), vehicle: saline with Tween-80) is reported as 2 of 6.

Turning to `COc1cccc(C2N(Cc3ccc(N(CCCl)CCCl)cc3C)CCCN2Cc2ccc(N(CCCl)CCCl)cc2C)c1O`, under setting [11], the survivor count is on record as 2 of 4.

Consider `CCCCCc1c2c(c(CCCCC)c3c1-c1cccc4cccc-3c14)-c1ccc(C)cc1C2`, for which the survivor count under setting [2] was 3 of 3.

Regarding `O=C(O)CCC1(c2ccccc2)CCCC1=O` (centres undefined), where the note is “dose: 200.0 mg/kg/injection, schedule: Q01DX009 (ip), vehicle: water”, the survivor count is 1 of 6.

For `O=C(Nc1ccccc1)Oc1ccc(OC(=O)Nc2ccccc2)c(Cl)c1`, the survivor count (dose: 400.0 mg/kg/injection, schedule: Q04DX002 (ip), vehicle: saline + alcohol) was 3 of 3.

Turning to `CC(CN1CCN(CCOCCO)CC1)CN1c2ccccc2Sc2ccc(Cl)cc21` (centres undefined), the survivor count is recorded as 6 of 6 (dose: 0.19 mg/kg/injection, schedule: Q01DX009 (ip), vehicle: saline); 2 of 4 (dose: 25.0 mg/kg/injection, schedule: Q04DX003 (ip), vehicle: saline); 0 of 4 (dose: 50.0 mg/kg/injection, schedule: Q04DX003 (ip), vehicle: saline); 0 of 4 under setting [12]; 0 of 4 under setting [13]; 0 of 4 under setting [14].

As for `CCN(C(=O)CCl)C(C)(C)C(SSSC(c1ccc(Cl)cc1)C(C)(C)N(CC)C(=O)CCl)c1ccc(Cl)cc1` (centres undefined), the survivor count under setting [14] was 0 of 6.

Take `O=C([O-])C1CCCCC1[I+]c1ccccc1` (centres undefined): under setting [14], the survivor count is 1 of 6.

In the case of `N#Cc1ccc(/C=N\NC(=O)CCCC(=O)N/N=C/c2ccc(C#N)cc2)cc1`, the survivor count (dose: 200.0 mg/kg/injection, schedule: Q01DX001 (ip), vehicle: other) was 4 of 4.

In the case of `CN(C)c1ccc(N=C(C#N)C#N)cc1`, for the setting “dose: 300.0 mg/kg/injection, schedule: Q01DX001 (ip), vehicle: other”, the survivor count is reported as 4 of 6.

Turning to `Cc1cc(N(CCCCl)CCCCl)ccc1C=Nc1cc(Cl)c(O)c(Cl)c1`, the survivor count under setting [5] is 6 of 6, the survivor count under setting [7] was 6 of 6 and the survivor count under setting [8] is reported as 6 of 6.

For `O=C(C[n+]1ccccc1)c1ccc(S(=O)(=O)c2ccccc2)cc1`, the survivor count runs as follows: under setting [7], 1 of 6; under setting [8], 0 of 6.

As for `CNc1nc(N(C)C)nc(N(C)C)n1`, where the note is “dose: 300.0 mg/kg/injection, schedule: Q01DX001 (ip), vehicle: saline”, the survivor count is 2 of 6.

Turning to `O=C(O)c1ccccc1C(=O)c1ccc(CBr)cc1`, the survivor count is recorded as 0 of 6 under setting [15], 0 of 6 under setting [16] and 0 of 6 under setting [17].

Regarding `CCN(CC)CCCOC(=O)C(CCC(C)C)c1ccccc1C` (centres undefined), the survivor count under setting [12] is listed as 3 of 6, the survivor count under setting [13] is recorded as 0 of 6 and the survivor count under setting [14] is 0 of 6.

With `Cc1cc(NC(=O)NCCCl)c2c(c1C)CCCC2`, the survivor count by setting is: (dose: 80.0 mg/kg/injection, schedule: Q01DX001 (ip), vehicle: Klucel (hydroxypropylcellulose) (HPC)) 3 of 6; under setting [18], 3 of 6; under setting [19], 2 of 6.

For `ONc1ccccn1`, the survivor count under setting [10] is listed as 0 of 6.

Take `CCC(=O)OC1(c2ccccc2)CCN(CCC(O)c2ccccc2)CC1C` (centres undefined): under “dose: 80.0 mg/kg/injection, schedule: Q04DX003 (ip), vehicle: Klucel (hydroxypropylcellulose) (HPC)”, the survivor count was 3 of 6.

In the case of `CC(C)CCC1(c2ccccc2)C(=O)NC(=O)NC1=O`, the survivor count under setting [9] was 0 of 6 and the survivor count under setting [10] is listed as 0 of 6.

Turning to `CC(=O)NC1=C(N2CCNCC2)C(=O)c2ccccc2C1=O`, the survivor count reads like this: under setting [15], 2 of 6; under setting [16], 0 of 6; under setting [17], 0 of 6.

`Cc1ccc(C(=O)Cl)cc1S(=O)(=O)F`: the survivor count was 3 of 6 under setting [4], 6 of 6 under setting [15], 3 of 6 under setting [6] and 2 of 6 under setting [17].

Regarding `CCCCCCCCCCCCCCCCCCNC1=C(Cl)C(=O)C(NCCCCCCCCCCCCCCCCCC)=C(Cl)C1=O`, the survivor count reads like this: (dose: 100.0 mg/kg/injection, schedule: Q01DX001 (ip), vehicle: carboxymethylcellulose (CMC)) 2 of 4; (dose: 200.0 mg/kg/injection, schedule: Q01DX001 (ip), vehicle: carboxymethylcellulose (CMC)) 0 of 4; under setting [11], 0 of 4.

With `OCc1cccc2c1CCC2`, the survivor count runs as follows: (dose: 100.0 mg/kg/injection, schedule: Q01DX001 (ip), vehicle: Klucel (hydroxypropylcellulose) (HPC)) 3 of 6; under setting [18], 1 of 6; under setting [19], 0 of 6.

In the case of `O=C(c1ccccc1)C(CC[P+](c1ccccc1)(c1ccccc1)c1ccccc1)(OBr)c1ccccc1` (centres undefined), the survivor count is given as 1 of 6 under setting [1], 0 of 6 under setting [2] and 0 of 6 under setting [3].
